Source: the supplement of paper PMC10849652
The other results are listed elsewhere or left out. Residues, ends and D or L forms follow the SMILES beside them. *: point of attachment. Cbz = O=C(OCc1ccccc1)*

Sequences of proteins named here, by UniProt entry; tags and fusion partners are left off. A change or cut given only in a name is not applied to a line headed by its entry.
UniProt Q9BZE2: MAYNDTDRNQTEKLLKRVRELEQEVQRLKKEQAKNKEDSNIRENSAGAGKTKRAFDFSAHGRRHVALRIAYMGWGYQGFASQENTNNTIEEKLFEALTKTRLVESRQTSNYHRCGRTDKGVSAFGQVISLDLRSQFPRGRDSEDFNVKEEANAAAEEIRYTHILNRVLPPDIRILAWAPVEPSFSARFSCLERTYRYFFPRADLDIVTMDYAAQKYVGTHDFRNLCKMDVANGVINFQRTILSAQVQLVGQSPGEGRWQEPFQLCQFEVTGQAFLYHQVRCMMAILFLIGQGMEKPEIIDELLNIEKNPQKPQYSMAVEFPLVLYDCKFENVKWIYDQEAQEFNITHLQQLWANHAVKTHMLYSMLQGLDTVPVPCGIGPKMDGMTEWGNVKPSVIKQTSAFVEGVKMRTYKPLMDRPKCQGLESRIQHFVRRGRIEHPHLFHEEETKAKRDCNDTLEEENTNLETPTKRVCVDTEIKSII
UniProt Q9UL46, whole entry, looked up: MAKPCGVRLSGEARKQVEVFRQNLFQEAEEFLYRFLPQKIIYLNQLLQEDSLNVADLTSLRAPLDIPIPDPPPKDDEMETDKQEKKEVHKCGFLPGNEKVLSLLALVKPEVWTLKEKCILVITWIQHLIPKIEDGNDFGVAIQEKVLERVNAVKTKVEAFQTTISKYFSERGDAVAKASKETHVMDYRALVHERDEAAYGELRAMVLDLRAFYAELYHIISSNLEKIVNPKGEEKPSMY
UniProt Q9H974: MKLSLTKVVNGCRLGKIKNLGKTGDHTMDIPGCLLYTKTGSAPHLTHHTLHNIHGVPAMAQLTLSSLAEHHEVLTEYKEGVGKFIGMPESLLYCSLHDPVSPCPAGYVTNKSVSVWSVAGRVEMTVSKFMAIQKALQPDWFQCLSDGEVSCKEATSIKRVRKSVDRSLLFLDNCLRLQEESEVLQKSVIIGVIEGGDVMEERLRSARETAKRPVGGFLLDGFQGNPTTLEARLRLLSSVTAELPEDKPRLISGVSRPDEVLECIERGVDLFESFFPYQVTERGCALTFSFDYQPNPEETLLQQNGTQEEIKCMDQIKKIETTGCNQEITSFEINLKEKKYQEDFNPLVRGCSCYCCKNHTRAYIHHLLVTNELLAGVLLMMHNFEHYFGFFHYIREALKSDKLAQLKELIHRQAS
UniProt Q8TAA3: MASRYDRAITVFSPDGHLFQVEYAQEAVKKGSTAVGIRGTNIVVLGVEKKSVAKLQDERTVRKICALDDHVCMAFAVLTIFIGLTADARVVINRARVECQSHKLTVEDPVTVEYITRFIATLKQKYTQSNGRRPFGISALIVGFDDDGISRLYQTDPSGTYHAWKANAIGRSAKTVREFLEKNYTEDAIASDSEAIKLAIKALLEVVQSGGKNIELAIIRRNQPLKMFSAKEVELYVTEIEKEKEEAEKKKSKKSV
UniProt P20618: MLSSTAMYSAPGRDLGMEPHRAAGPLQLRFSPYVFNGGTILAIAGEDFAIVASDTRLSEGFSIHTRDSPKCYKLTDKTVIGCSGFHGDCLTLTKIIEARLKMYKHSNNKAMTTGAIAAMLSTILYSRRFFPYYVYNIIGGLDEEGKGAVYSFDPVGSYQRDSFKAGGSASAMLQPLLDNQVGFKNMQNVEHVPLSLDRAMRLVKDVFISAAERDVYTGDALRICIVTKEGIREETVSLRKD
UniProt Q9Y617: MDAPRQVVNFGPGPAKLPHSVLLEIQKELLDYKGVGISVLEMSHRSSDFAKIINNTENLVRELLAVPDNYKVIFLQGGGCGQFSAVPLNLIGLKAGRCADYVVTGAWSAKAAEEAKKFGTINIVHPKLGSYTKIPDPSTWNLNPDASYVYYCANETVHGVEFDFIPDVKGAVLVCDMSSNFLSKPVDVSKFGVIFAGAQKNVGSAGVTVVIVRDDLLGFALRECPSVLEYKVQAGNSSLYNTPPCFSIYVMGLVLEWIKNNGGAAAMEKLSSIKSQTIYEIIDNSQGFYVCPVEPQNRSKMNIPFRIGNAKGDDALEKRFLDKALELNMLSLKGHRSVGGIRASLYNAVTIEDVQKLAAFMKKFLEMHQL
UniProt Q08623: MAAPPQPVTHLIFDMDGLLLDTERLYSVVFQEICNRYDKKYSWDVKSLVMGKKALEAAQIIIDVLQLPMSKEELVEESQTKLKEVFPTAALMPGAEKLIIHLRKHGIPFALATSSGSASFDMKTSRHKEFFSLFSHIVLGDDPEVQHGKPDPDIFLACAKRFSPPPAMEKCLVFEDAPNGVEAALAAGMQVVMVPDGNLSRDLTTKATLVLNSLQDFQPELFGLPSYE
UniProt Q9BVG9: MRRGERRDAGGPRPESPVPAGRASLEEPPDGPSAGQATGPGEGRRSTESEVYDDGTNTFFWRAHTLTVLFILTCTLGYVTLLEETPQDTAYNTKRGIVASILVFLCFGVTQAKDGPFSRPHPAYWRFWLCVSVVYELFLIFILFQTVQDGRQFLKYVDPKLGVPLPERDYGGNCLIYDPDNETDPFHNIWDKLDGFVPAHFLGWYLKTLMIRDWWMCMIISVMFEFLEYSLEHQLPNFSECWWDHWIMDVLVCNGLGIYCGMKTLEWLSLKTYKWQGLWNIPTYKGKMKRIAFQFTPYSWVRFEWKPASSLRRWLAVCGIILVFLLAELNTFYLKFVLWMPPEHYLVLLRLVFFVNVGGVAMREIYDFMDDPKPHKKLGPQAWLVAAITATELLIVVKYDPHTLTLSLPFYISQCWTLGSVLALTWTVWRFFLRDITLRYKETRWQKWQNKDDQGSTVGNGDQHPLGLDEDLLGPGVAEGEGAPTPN
UniProt O00487, whole entry, looked up: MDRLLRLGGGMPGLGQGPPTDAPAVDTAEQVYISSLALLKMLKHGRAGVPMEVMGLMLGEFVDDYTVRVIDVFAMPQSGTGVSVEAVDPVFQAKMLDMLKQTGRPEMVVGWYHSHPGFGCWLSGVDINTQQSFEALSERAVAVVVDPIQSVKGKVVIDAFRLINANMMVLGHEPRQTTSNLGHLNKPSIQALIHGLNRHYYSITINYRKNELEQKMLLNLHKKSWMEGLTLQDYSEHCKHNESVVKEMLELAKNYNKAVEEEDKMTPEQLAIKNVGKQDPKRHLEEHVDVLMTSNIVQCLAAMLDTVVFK
UniProt P18433: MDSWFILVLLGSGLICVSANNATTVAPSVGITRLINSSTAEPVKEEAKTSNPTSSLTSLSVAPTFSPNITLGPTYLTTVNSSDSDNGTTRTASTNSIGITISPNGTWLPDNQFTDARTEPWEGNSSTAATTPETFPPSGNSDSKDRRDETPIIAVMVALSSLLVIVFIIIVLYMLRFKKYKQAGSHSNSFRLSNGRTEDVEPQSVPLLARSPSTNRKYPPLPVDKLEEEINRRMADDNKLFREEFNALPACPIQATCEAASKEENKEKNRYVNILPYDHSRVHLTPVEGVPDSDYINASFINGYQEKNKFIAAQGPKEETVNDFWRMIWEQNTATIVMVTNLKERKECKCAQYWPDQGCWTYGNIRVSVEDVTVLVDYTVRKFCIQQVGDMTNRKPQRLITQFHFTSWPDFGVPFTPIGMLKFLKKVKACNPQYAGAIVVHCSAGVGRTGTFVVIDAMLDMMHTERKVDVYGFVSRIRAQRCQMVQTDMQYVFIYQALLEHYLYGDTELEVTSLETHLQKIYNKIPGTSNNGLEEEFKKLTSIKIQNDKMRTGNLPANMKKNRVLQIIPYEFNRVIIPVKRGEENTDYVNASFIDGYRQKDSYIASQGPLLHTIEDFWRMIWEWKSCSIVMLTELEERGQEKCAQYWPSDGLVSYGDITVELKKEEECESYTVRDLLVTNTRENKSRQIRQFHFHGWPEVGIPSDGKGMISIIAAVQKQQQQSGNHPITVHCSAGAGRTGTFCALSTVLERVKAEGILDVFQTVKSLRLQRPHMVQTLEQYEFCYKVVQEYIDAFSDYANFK
UniProt P47897: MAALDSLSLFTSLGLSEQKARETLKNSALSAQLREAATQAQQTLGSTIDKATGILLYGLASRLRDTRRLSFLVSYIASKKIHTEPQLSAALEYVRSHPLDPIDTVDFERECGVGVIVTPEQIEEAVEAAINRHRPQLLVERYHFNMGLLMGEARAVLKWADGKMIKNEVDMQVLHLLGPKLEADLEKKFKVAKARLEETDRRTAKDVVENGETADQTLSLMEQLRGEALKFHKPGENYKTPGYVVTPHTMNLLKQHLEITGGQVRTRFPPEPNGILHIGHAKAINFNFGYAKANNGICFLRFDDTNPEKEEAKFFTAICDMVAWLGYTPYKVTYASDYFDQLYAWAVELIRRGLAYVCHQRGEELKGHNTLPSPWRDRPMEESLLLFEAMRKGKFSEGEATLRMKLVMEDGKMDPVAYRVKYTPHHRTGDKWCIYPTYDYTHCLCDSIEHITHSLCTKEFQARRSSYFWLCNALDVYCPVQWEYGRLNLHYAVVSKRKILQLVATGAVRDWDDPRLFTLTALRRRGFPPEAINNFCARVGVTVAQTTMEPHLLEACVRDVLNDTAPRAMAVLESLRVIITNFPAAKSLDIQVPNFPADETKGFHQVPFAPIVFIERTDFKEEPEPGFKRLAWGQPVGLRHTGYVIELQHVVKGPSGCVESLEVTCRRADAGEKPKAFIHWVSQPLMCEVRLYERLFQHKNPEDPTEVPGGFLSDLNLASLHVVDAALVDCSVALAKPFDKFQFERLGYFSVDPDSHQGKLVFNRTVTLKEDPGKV
UniProt Q9H939: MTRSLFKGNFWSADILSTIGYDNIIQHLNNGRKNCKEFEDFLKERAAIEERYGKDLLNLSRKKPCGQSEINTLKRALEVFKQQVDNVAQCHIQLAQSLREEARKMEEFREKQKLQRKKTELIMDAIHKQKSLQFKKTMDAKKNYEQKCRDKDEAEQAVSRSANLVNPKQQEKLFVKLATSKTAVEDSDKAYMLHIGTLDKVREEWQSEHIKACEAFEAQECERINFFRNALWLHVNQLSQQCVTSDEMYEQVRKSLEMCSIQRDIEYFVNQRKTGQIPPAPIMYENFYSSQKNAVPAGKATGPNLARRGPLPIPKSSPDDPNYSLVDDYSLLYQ
UniProt P61289: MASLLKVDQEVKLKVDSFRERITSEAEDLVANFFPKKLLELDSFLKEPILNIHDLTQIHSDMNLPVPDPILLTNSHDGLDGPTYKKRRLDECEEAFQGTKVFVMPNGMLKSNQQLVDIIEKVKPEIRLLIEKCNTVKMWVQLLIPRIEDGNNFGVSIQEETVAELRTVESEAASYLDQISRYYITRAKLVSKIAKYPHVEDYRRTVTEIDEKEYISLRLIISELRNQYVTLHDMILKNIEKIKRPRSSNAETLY
UniProt Q96PZ0: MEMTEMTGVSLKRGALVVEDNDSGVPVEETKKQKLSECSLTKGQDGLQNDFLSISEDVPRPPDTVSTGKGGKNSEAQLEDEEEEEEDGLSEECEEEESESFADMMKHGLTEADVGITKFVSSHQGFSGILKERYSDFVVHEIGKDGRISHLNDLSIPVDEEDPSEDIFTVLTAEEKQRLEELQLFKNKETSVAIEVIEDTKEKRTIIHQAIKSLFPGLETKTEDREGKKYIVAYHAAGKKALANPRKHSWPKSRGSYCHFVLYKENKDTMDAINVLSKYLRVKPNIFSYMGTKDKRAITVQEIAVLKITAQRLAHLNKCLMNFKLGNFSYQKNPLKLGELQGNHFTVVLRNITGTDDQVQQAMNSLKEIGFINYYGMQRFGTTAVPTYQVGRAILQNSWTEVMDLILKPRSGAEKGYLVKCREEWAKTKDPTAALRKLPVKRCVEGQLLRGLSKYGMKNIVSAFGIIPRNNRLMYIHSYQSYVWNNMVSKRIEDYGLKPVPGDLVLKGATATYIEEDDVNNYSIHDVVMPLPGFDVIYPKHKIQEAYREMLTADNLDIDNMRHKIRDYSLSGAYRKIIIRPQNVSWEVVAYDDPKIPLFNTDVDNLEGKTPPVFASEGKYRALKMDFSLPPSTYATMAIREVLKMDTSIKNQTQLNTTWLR
UniProt Q99436: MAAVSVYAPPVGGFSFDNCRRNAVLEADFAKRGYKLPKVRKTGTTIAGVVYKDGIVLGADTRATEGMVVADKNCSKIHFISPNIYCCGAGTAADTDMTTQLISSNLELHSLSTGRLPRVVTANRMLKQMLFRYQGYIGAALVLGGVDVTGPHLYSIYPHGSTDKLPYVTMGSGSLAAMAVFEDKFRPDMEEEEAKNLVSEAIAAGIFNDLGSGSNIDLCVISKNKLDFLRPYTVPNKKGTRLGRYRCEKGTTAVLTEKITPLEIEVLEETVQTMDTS

What was measured:
Experiment in all cases: log2 fold change, soluble protein after heating vs DMSO (PISA); higher = thermal stabilisation; K562 cells, 10 uM, 30 min; active = over 0.2 and 3.5 SD of the protein, either way, in both replicates (recomputed)
erlotinib = compound: C#Cc1cccc(Nc2ncnc3cc(OCCOC)c(OCCOC)cc23)c1 [erlotinib]
How it was run: (§1)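 For each measurement, 10 μM compound was applied for 30 min to K562 cells at 2×10^6 cells/mL. Aliquots were heated for 3 min across 48°C-58°C, pooled, and extracted in PBS with 0.5% NP-40 at 4°C; the supernatant after 21,000xg for 90 min was soluble protein. This was quantified by TMTpro 16plex LC-MS/MS with channel sums equalised, and thermal stability was reported relative to control samples from duplicates, on a log2 fold-change scale.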

[1] = compound: C/C(=N\NC(=O)C1=CC(=CC=C1)S(=O)(=O)N2CCOCC2)/C3=C(C=CC(=C3)Cl)O
How it was run: as §1

[2] = compound: C1=CC(=C(C=C1Cl)C2=NC3=NC=CN=C3C(=N2)NC4=CC=NC=C4)F
How it was run: as §1

[3] = compound: C1=CC(=CC=C1C2=NC3=C(N2)C=C(C=C3)C(=O)N)OC4=CC=C(C=C4)Cl
How it was run: as §1

[4] = compound: C1=CC2=C(C=CC(=C2)/C=C\3/C(=O)NC(=NCC4=CC=CS4)S3)N=C1
How it was run: as §1

[5] = compound: C1=CC2=NC=CN=C2C=C1/C=C/3\C(=O)NC(=O)S3
How it was run: as §1

[6] = compound: C1=CC=C(C=C1)C2=NC(=C(N2)C3=CC=NC=C3)C4=CC(=C(C=C4)Cl)O
How it was run: as §1

[7] = compound: C1=CC=C2C(=C1)C3=NNC4=CC=CC(=C43)C2=O
How it was run: as §1

[8] = compound: C1CCN(C1)C(=O)NC2=CC=CC(=C2)NC3=NC=C(C(=N3)NCCC4=CN=CN4)Br
How it was run: as §1

[9] = compound: C1CN(CCC1(CC2=CC=C(C=C2)Cl)N)C3=NC=NC4=C3C=CN4
How it was run: as §1

IRAK-1-4 Inhibitor I = compound: C1COCCN1CCN2C3=CC=CC=C3N=C2NC(=O)C4=CC(=CC=C4)[N+](=O)[O-] [IRAK-1-4 Inhibitor I]
How it was run: as §1

ibrutinib = compound: C=CC(=O)N1CCC[C@@H](n2nc(-c3ccc(Oc4ccccc4)cc3)c3c(N)ncnc32)C1 [ibrutinib]
How it was run: as §1

[10] = compound: CC(=O)c1cnc2ccc(-c3cc(Cl)c(O)c(Cl)c3)nc2c1N[C@H]1CC[C@H](CN(C)C)CC1
How it was run: as §1

ralimetinib = compound: CC(C)(C)Cn1c(N)nc2ccc(-c3[nH]c(C(C)(C)C)nc3-c3ccc(F)cc3)nc21 [ralimetinib]
How it was run: as §1

[11] = compound: CC(C)(O)CC(=O)NCCn1ccc2ncnc(Nc3ccc(Oc4cccc(C(F)(F)F)c4)c(Cl)c3)c21
How it was run: as §1

[12] = compound: CC(C)C1=C2N=C(C=C(N2N=C1)NCC3=CC=CC=C3)NCCCCCCN
How it was run: as §1

[13] = compound: CC(C)C[C@@H](C=O)NC(=O)[C@H](CC(C)C)NC(=O)[C@H](CC(C)C)NC(=O)OCc1ccccc1
How it was run: as §1

pinometostat = compound: CC(C)N(C[C@H]1O[C@@H](n2cnc3c(N)ncnc32)[C@H](O)[C@@H]1O)[C@H]1C[C@@H](CCc2nc3cc(C(C)(C)C)ccc3[nH]2)C1 [pinometostat]
How it was run: as §1

[14] = compound: CC1=C(C(CC(=O)N1)C2=CC=C(C=C2)C(F)(F)F)C(=O)NC3=C(C=C4C(=C3)C=NN4)F
How it was run: as §1

[15] = compound: CC1=C(C2=C(C=C1)C(=O)C3=CC=CC=C3N2CCCN)C
How it was run: as §1

Measured: log2 fold change

PUS3 (UniProt Q9BZE2)
inactive: erlotinib 0.002 | [1] 0.149 | [2] 0.027 | [3] 0.049 | [4] 0.067 | [5] 0.023 | [6] -0.157 | [7] -0.013 | [8] -0.018 | [9] 0.072 | IRAK-1-4 Inhibitor I 0.004 | ibrutinib -0.061 | [10] -0.104 | ralimetinib -0.117 | [11] -0.023 | [12] -0.064 | [13] 0.021 | pinometostat -0.039 | [14] 0.084 | [15] -0.078

PSME2 (UniProt Q9UL46)
inactive: erlotinib 0.03 | [1] -0.037 | [2] 0.015 | [3] -0.001 | [4] -0.013 | [5] 0.02 | [6] 0.062 | [7] 0.009 | [8] 0.033 | [9] 0.033 | IRAK-1-4 Inhibitor I 0.021 | ibrutinib -0.021 | [10] 0.005 | ralimetinib -0.054 | [11] -0.012 | [12] -0.006 | [13] -0.054 | pinometostat -0.027 | [14] 0 | [15] -0.075

QTRT2 isoform 4 (UniProt Q9H974)
inactive: erlotinib 0.014 | [1] -0.011 | [2] 0.053 | [3] 0.027 | [4] 0.024 | [5] -0.04 | [6] -0.014 | [7] 0.05 | [8] 0.016 | [9] 0.036 | IRAK-1-4 Inhibitor I 0.07 | ibrutinib 0.034 | [10] -0.001 | ralimetinib -0.007 | [11] 0.001 | [12] 0.004 | [13] -0.002 | pinometostat -0.002 | [14] -0.003 | [15] -0.04

PSMA8 (UniProt Q8TAA3)
inactive: erlotinib -0.084 | [1] -0.016 | [2] -0.04 | [3] 0.011 | [4] 0.05 | [5] -0.018 | [6] 0.03 | [7] 0.007 | [8] 0.057 | [9] -0.013 | IRAK-1-4 Inhibitor I -0.012 | ibrutinib -0.003 | [10] 0.037 | ralimetinib 0 | [11] 0.04 | [12] 0.04 | [13] -0.072 | pinometostat 0.017 | [14] -0.021 | [15] -0.027

PTCD3 (UniProt Q96EY7)
inactive: erlotinib -0.061 | [1] 0.072 | [2] 0.009 | [3] 0.147 | [4] -0.08 | [5] -0.018 | [6] 0.031 | [7] 0.072 | [8] -0.062 | [9] -0.033 | IRAK-1-4 Inhibitor I -0.065 | ibrutinib 0.109 | [10] 0.007 | ralimetinib 0.021 | [11] -0.053 | [12] -0.061 | [13] 0.048 | pinometostat 0.018 | [14] 0.009 | [15] -0.182

PSMB1 (UniProt P20618)
inactive: erlotinib -0.131 | [1] -0.044 | [2] -0.022 | [3] 0.044 | [4] -0.075 | [5] -0.02 | [6] 0.045 | [7] 0.009 | [8] 0.014 | [9] 0.012 | IRAK-1-4 Inhibitor I 0.002 | ibrutinib 0.02 | [10] 0.041 | ralimetinib 0.088 | [11] 0 | [12] 0.164 | [13] -0.037 | pinometostat 0.006 | [14] 0.02 | [15] 0.002

PSAT1 (UniProt Q9Y617)
inactive: erlotinib -0.051 | [1] -0.008 | [2] 0.035 | [3] 0.011 | [4] -0.038 | [5] 0.012 | [6] -0.035 | [7] -0.039 | [8] 0.005 | [9] 0.055 | IRAK-1-4 Inhibitor I 0.038 | ibrutinib 0.011 | [10] 0.006 | ralimetinib -0.037 | [11] 0.006 | [12] 0.055 | [13] -0.014 | pinometostat -0.042 | [14] 0.021 | [15] -0.025

PUDP isoform 4 (UniProt Q08623)
inactive: erlotinib 0.022 | [1] 0.067 | [2] 0.049 | [3] 0.034 | [4] -0.041 | [5] -0.011 | [6] 0.079 | [7] 0.022 | [8] -0.041 | [9] 0.035 | IRAK-1-4 Inhibitor I 0.045 | ibrutinib -0.006 | [10] 0.056 | ralimetinib 0.024 | [11] -0.034 | [12] 0.066 | [13] -0.094 | pinometostat -0.098 | [14] -0.036 | [15] 0.023

PTDSS2 (UniProt Q9BVG9)
inactive: erlotinib -0.012 | [1] 0.01 | [2] 0.056 | [3] -0.022 | [4] 0.066 | [5] 0.094 | [6] -0.026 | [7] -0.032 | [8] -0.017 | [9] 0.005 | IRAK-1-4 Inhibitor I 0.023 | ibrutinib -0.02 | [10] -0.016 | ralimetinib -0.121 | [11] -0.03 | [12] -0.189 | [13] 0.008 | pinometostat -0.007 | [14] -0.019 | [15] 0.025

PSMD14 (UniProt O00487)
inactive: erlotinib -0.073 | [1] -0.021 | [2] -0.027 | [3] 0.024 | [4] -0.003 | [5] 0.012 | [6] 0.013 | [7] 0.044 | [8] -0.017 | [9] -0.05 | IRAK-1-4 Inhibitor I -0.063 | ibrutinib -0.087 | [10] 0.029 | ralimetinib 0.03 | [11] -0.046 | [12] -0.03 | [13] -0.237 | pinometostat 0.055 | [14] 0.021 | [15] 0.048

PTPRA (UniProt P18433)
inactive: erlotinib -0.036 | [1] 0.06 | [2] 0.017 | [3] -0.033 | [4] -0.002 | [5] 0.072 | [6] -0.09 | [7] 0.006 | [8] -0.073 | [9] 0.047 | IRAK-1-4 Inhibitor I -0.022 | ibrutinib -0.081 | [10] -0.102 | ralimetinib -0.035 | [11] 0.036 | [12] 0.129 | [13] 0.065 | pinometostat -0.071 | [14] -0.021 | [15] 0.021

QARS (UniProt P47897)
inactive: erlotinib 0.054 | [1] -0.015 | [2] -0.541 | [3] -0.007 | [4] 0.018 | [5] 0.021 | [6] -0.055 | [7] 0.023 | [8] 0.073 | [9] -0.177 | IRAK-1-4 Inhibitor I -0.16 | ibrutinib 0.066 | [10] 0.252 | ralimetinib 0.264 | [11] 0.038 | [12] -0.278 | [13] 0.232 | pinometostat 0.521 | [14] -0.013 | [15] -0.058

PSTPIP2 (UniProt Q9H939)
inactive: erlotinib -0.015 | [1] -0.025 | [2] -0.015 | [3] 0.014 | [4] -0.056 | [5] 0.07 | [6] -0.009 | [7] 0.047 | [8] -0.018 | [9] 0.004 | IRAK-1-4 Inhibitor I -0.044 | ibrutinib -0.068 | [10] 0.016 | ralimetinib 0.046 | [11] 0.054 | [12] 0.008 | [13] 0.064 | pinometostat 0.017 | [14] -0.03 | [15] 0.041

PSME3 isoform 2 (UniProt P61289)
inactive: erlotinib 0.011 | [1] 0.005 | [2] 0.023 | [3] -0.015 | [4] -0.07 | [5] 0.024 | [6] 0.026 | [7] -0.017 | [8] 0.015 | [9] 0.034 | IRAK-1-4 Inhibitor I 0.059 | ibrutinib 0.007 | [10] -0.017 | ralimetinib -0.003 | [11] 0.03 | [12] 0.065 | [13] -0.031 | pinometostat -0.034 | [14] 0.015 | [15] -0.035

PUS7 isoform 2 (UniProt Q96PZ0)
inactive: erlotinib -0.01 | [1] 0.027 | [2] -0.018 | [3] 0.017 | [4] -0.011 | [5] -0.014 | [6] 0.006 | [7] -0.022 | [8] -0.036 | [9] 0.02 | IRAK-1-4 Inhibitor I -0.01 | ibrutinib -0.002 | [10] -0.067 | ralimetinib 0.015 | [11] 0.013 | [12] -0.036 | [13] 0.008 | pinometostat 0.051 | [14] 0.019 | [15] 0.098

Copied from the listing (3 entries):
QARS (UniProt P47897)
inactive: erlotinib 0.054 | [1] -0.015 | [2] -0.541 | [3] -0.007 | [4] 0.018 | [5] 0.021 | [6] -0.055 | [7] 0.023 | [8] 0.073 | [9] -0.177 | IRAK-1-4 Inhibitor I -0.16 | ibrutinib 0.066 | [10] 0.252 | ralimetinib 0.264 | [11] 0.038 | [12] -0.278 | [13] 0.232 | pinometostat 0.521 | [14] -0.013 | [15] -0.058

PSTPIP2 (UniProt Q9H939)
inactive: erlotinib -0.015 | [1] -0.025 | [2] -0.015 | [3] 0.014 | [4] -0.056 | [5] 0.07 | [6] -0.009 | [7] 0.047 | [8] -0.018 | [9] 0.004 | IRAK-1-4 Inhibitor I -0.044 | ibrutinib -0.068 | [10] 0.016 | ralimetinib 0.046 | [11] 0.054 | [12] 0.008 | [13] 0.064 | pinometostat 0.017 | [14] -0.03 | [15] 0.041

PSME3 isoform 2 (UniProt P61289)
inactive: erlotinib 0.011 | [1] 0.005 | [2] 0.023 | [3] -0.015 | [4] -0.07 | [5] 0.024 | [6] 0.026 | [7] -0.017 | [8] 0.015 | [9] 0.034 | IRAK-1-4 Inhibitor I 0.059 | ibrutinib 0.007 | [10] -0.017 | ralimetinib -0.003 | [11] 0.03 | [12] 0.065 | [13] -0.031 | pinometostat -0.034 | [14] 0.015 | [15] -0.035

Following part:

PSMB7 (UniProt Q99436)
inactive: erlotinib -0.021 | [1] -0.054 | [2] -0.021 | [3] -0.008 | [4] -0.022 | [5] -0.009 | [6] 0.044 | [7] 0.012 | [8] 0.01 | [9] 0.022 | IRAK-1-4 Inhibitor I -0.003 | ibrutinib 0.019 | [10] 0.056 | ralimetinib 0.012 | [11] 0.045 | [12] 0.07 | [13] -0.063 | pinometostat 0.004 | [14] 0.005 | [15] -0.033
